Assay results from patent US20120122981A1, “Biomarkers Related to Insulin Resistance and Methods using the Same” (priority 2009, published 2012).

Experiment: Targeted LC-MS-MS biomarker levels in plasma of bariatric surgery subjects (baseline vs post-surgery)
Type: in vivo, human
Conditions: post-surgery as insulin sensitivity increases

Molecule	change of biomarker level following bariatric surgery
CC[C@H](O)C(=O)O [2-hydroxybutyrate]	decreased

Experiment: Prediction of progression to dyslipidemia at 3 years from baseline plasma biomarker levels, t-test and Random Forest (Tables 28, 29)
Set-up: species or system human
Conditions: progressor mean / non-progressor mean

Molecule	RATIO
1-oleoyl-2-hydroxy-sn-glycero-3-phosphocholine [Oleoyl-LPC]	0.95
1-palmitoyl-2-hydroxy-sn-glycero-3-phosphocholine [Palmitoyl-LPC]	0.97
CC[C@H](O)C(=O)O [2-hydroxybutyrate]	1.01
CC(O)CC(=O)O (stereo not drawn) [3-hydroxy-butyrate, 3-hydroxybutanoic acid]	0.87
N=C(N)NCCC[C@H](N)C(=O)O [Arginine]	1.01
C[N+](C)(C)CC(=O)[O-] [Betaine, 2-(trimethylazaniumyl)acetate]	1.14
CC(C)C(=O)C(=O)O [Biomarker 3-methyl-2-oxo-butyric_acid]	1.03
CN(CC(=O)O)C(=N)N [Creatine, 2-[carbamimidoyl(methyl)amino]acetic acid]	0.90
NCC(=O)O [Glycine, 2-aminoacetic acid]	0.94
CCCCC/C=C\C/C=C\CCCCCCCC(=O)OC[C@@H](O)COP(=O)([O-])OCC[N+](C)(C)C [Linoleoyl-LPC, 1-linoleoyl-2-hydroxy-sn-glycero-3-phosphocholine]	1.01
CCCCCCCCCCCCCCCC(=O)O [Palmitate]	0.90
NC(CO)C(=O)O (stereo not drawn) [Serine, 2-amino-3-hydroxy-propanoic acid]	0.97
CCCCCCCCCCCCCCCCCC(=O)O [Stearic acid (Stearate), Octadecanoic acid]	0.94
C[C@@H](O)[C@H](N)C(=O)O [Threonine]	1.00
N[C@@H](Cc1c[nH]c2ccccc12)C(=O)O [Tryptophan]	1.02
N[C@@H](CCC(=O)O)C(=O)O [glutamic_acid]	1.10
CCCCC/C=C\C/C=C\CCCCCCCC(=O)O [linoleic_acid]	0.98
CCCCCCCCCCCCCCCCC(=O)O [margaric_acid]	0.96
CCCCCCCC(=O)O[C@H](CC(=O)O)C[N+](C)(C)C [octanoyl_carnitine]	1.06
CCCCCCCC/C=C\CCCCCCCC(=O)O [oleic_acid]	0.88
CCCCCC/C=C\CCCCCCCC(=O)O [palmitoleic_acid]	0.68
docosatetraenoic_acid	0.99
linolenic_acid	0.81
